Data as given in PubChem BioAssay AID1224830 (NIAID, 2016)
Screen: 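Regulators of TLR4 signalling towards TNF-alpha in macrophage-like cells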 (primary screen). System: human THP-1 monocytic leukaemia cells, TNF dual-luciferase reporter clone, PMA-differentiated to macrophage-like cells. Reagents: siRNA pool against human genes, 50 nM. Timing: LPS for 4 h, given about 3 days after siRNA transfection. Conditions: bacterial LPS (TLR4 ligand), 10 ng/ml. Detection: 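TNF firefly reporter luminescence divided by renilla, normalised to the plate median, then turned into a robust z-score for each replicate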. Direction: TNF reporter robust z-score: higher = stronger TNF reporter response to LPS. Hit rule: 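Each well counts as active if its z-score is over 2.8 or under -1.5; controls are left without a call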.
The whole screen tested about 18,000 reagents; shown is a random part of them. In the full data, about 2,900 (16%) are marked active. 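Calls are made per well; low scores hint the gene aids the LPS response, high scores that it dampens it.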 Repeated entries: four replicate wells of each siRNA pool.

The first 9 entries, ahead of the listing:
TNF reporter robust z-score	outcome	target
0	inactive	POLR2K
0.06	inactive	POLR2K
-0.2	inactive	POLR2K
-0.35	inactive	POLR2K
2.8	active	ERBB3
-0.57	inactive	ERBB3
0.94	inactive	ERBB3
0.53	inactive	ERBB3
0.2	inactive	COG1

The list itself, from the first entry:
TNF reporter robust z-score	outcome	target
0	inactive	POLR2K
0.06	inactive	POLR2K
-0.2	inactive	POLR2K
-0.35	inactive	POLR2K
2.8	active	ERBB3
-0.57	inactive	ERBB3
0.94	inactive	ERBB3
0.53	inactive	ERBB3
0.2	inactive	COG1
0.04	inactive	COG1
-0.05	inactive	COG1
0.08	inactive	COG1
-0.65	inactive	E2F5
-0.93	inactive	E2F5
-0.26	inactive	E2F5
0.57	inactive	E2F5
-1.4	inactive	TEF
-1	inactive	TEF
-1.68	active	TEF
-0.68	inactive	TEF
-0.44	inactive	KIFBP
-0.67	inactive	KIFBP
-0.17	inactive	KIFBP
1.73	inactive	KIFBP
-0.46	inactive	SF3A3
-0.82	inactive	SF3A3
-0.6	inactive	SF3A3
0.14	inactive	SF3A3
-1.02	inactive	NFYC
-1.54	active	NFYC
-1.59	active	NFYC
-1.17	inactive	NFYC
-0.79	inactive	APRG1
-1.11	inactive	APRG1
-0.08	inactive	APRG1
-0.2	inactive	APRG1
-0.04	inactive	SPTA1
-0.11	inactive	SPTA1
-0.46	inactive	SPTA1
0.09	inactive	SPTA1
-0.3	inactive	RAN
0.3	inactive	RAN
-0.72	inactive	RAN
1.11	inactive	RAN
-1.07	inactive	SOX3
0.16	inactive	SOX3
0.88	inactive	SOX3
1.03	inactive	SOX3
-0.26	inactive	A1CF
0.81	inactive	A1CF
0.28	inactive	A1CF
1.11	inactive	A1CF
0.43	inactive	VN1R4
-0.59	inactive	VN1R4
0.33	inactive	VN1R4
0.14	inactive	VN1R4
0.92	inactive	PAK5
0.77	inactive	PAK5
0.86	inactive	PAK5
1.6	inactive	PAK5
-1.07	inactive	NSFL1C
-0.36	inactive	NSFL1C
-1.22	inactive	NSFL1C
-0.95	inactive	NSFL1C
-1.09	inactive	TOGARAM1
-1.1	inactive	TOGARAM1
0.22	inactive	TOGARAM1
1.78	inactive	TOGARAM1
-0.01	inactive	NR2C2
-0.05	inactive	NR2C2
0.4	inactive	NR2C2
-0.21	inactive	NR2C2
-0.92	inactive	PLEKHO1
-0.89	inactive	PLEKHO1
-0.83	inactive	PLEKHO1
-1.27	inactive	PLEKHO1
0.01	inactive	CLEC4C
0.57	inactive	CLEC4C
-0.03	inactive	CLEC4C
0.23	inactive	CLEC4C
0.09	inactive	GTF2IRD2
0.42	inactive	GTF2IRD2
0.9	inactive	GTF2IRD2
1.95	inactive	GTF2IRD2
-0.62	inactive	ALDH3B1
0.29	inactive	ALDH3B1
0.53	inactive	ALDH3B1
0.32	inactive	ALDH3B1
-0.88	inactive	CHST4
1.12	inactive	CHST4
0.36	inactive	CHST4
-0.07	inactive	CHST4
0.34	inactive	ZNF358
-0.86	inactive	ZNF358
0.19	inactive	ZNF358
-0.44	inactive	ZNF358
-0.85	inactive	TST
0.83	inactive	TST
0.32	inactive	TST
2.35	inactive	TST
-1.35	inactive	UTS2B
-1.08	inactive	UTS2B
-0.54	inactive	UTS2B
-0.56	inactive	UTS2B
2.67	inactive	TMEM175
4.59	active	TMEM175
0.91	inactive	TMEM175
2.69	inactive	TMEM175
-1.51	active	ATG13
-0.42	inactive	ATG13
-0.7	inactive	ATG13
-1.22	inactive	ATG13
